Among the data in article PMC4795683 are binding values, retold here.

One experiment deals with T1, Mei4-VC (S. pombe) (UniProt O13606).
T1 sequence: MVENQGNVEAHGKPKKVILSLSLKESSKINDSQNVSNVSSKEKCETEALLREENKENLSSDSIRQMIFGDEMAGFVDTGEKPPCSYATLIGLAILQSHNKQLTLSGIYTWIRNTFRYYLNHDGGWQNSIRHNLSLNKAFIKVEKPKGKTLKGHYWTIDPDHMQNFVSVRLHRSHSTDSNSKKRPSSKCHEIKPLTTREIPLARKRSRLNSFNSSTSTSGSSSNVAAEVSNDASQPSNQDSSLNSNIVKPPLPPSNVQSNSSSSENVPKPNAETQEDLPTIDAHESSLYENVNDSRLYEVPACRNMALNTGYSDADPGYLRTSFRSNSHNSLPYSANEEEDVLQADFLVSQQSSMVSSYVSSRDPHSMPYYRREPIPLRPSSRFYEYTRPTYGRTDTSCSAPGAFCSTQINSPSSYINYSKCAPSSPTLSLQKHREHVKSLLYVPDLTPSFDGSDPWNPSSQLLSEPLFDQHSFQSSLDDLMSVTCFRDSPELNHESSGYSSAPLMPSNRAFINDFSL
Put plainly: split reporter; BiFC with Venus fragments VN and VC in living vegetative S. pombe cells, 18 h in thiamine-free EMM; fluorescence microscopy.

A further experiment concerns the target T2, Cuf2-TAP (S. pombe) (UniProt O94588).
T2 sequence: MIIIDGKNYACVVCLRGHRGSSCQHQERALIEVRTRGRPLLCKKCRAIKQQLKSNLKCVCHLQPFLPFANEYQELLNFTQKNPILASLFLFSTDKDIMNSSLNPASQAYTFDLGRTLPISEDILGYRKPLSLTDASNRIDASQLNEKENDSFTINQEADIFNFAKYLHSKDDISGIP
Put plainly: co-IP; TAP pull-down: whole-cell extracts (10 mg protein) of vegetative S. pombe cells, Mei4-GFP induced 18 h without thiamine, mixed with IgG Sepharose 6 Fast-Flow beads 2 h at 4°C; lysis buffer 10 mM Tris-HCl pH 7.9, 0.1% Triton X-100, 0.5 mM EDTA, 20% glycerol, 100 mM NaCl; bound proteins blotted with anti-GFP, anti-IgG and anti-α-tubulin.

The target of a further experiment is T3, Cuf2-VN (S. pombe) (UniProt O94588).
T3 sequence: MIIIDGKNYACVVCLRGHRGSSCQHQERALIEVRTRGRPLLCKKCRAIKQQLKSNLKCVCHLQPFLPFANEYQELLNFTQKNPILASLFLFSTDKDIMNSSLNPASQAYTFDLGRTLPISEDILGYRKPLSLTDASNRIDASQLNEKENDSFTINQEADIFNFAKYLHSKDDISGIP
Description: split reporter; BiFC with Venus fragments VN and VC in living vegetative S. pombe cells, 18 h in thiamine-free EMM; fluorescence microscopy.

Results are given in words; binding and its absence hold for the method and conditions named. Binding seen in cells or lysates may run through a third protein. Some entries that bind do so weakly or less than the wild type. For part of these data: Tags and fused reporters may be left off the sequences shown.

B1: VN-Fep1 (protein, UniProt Q10134 1-564)
chain: MAAKPAPFGQSCSNCHKTTTSLWRRGPDNSLLCNACGLYQKHRKHARPVKSEDLKDISPLIQQVCKNGTCAGDGFCNGTGGSASCTGCPALNNRIRSLNASKSQSGRKSLSPNPSSVPSSTETKASPTPLESKPQIVSDTTTETSNGTSRRRSSHNQHEDSSPPHEPSVTFCQNCATTNTPLWRRDESGNPICNACGLYYKIHGVHRPVTMKKAIIKRRKRLVFNGNANESQHNLKRMSSGDSGSSVKQQSTRDGPFSKSFPNGNGHASGNSGEGLAEHGMNTGVLPPASTFPSYNSNFTGFLPSSFNPSPLMTLSRLAAGEPDNNGKVYYSYGPTQEQSILPLPENKHEGLPPYQNEYVPNGIRANQVVYPGQLVAVGNDSSKQLSESTTSNTDNNGVATANQSNPLGMKFHLPPILPVGESVCLPPRTSAKPRIAEGIASLLNPEEPPSNSDKQPSMSNGPKSEVSPSQSQQAPLIQSSTSPVSLQFPPEVQGSNVDKRNYALNVLSQLRSQHDLMIQELHNLNQHIQQIDEWLRSSDNENMASEHIKSSTPAVVASGALQT
On to B1, for which the binding result in the experiment with Mei4-VC (S. pombe) is recorded as “no binding”.

B2: Mei4-GFP (protein, UniProt O13606 1-517)
chain: MVENQGNVEAHGKPKKVILSLSLKESSKINDSQNVSNVSSKEKCETEALLREENKENLSSDSIRQMIFGDEMAGFVDTGEKPPCSYATLIGLAILQSHNKQLTLSGIYTWIRNTFRYYLNHDGGWQNSIRHNLSLNKAFIKVEKPKGKTLKGHYWTIDPDHMQNFVSVRLHRSHSTDSNSKKRPSSKCHEIKPLTTREIPLARKRSRLNSFNSSTSTSGSSSNVAAEVSNDASQPSNQDSSLNSNIVKPPLPPSNVQSNSSSSENVPKPNAETQEDLPTIDAHESSLYENVNDSRLYEVPACRNMALNTGYSDADPGYLRTSFRSNSHNSLPYSANEEEDVLQADFLVSQQSSMVSSYVSSRDPHSMPYYRREPIPLRPSSRFYEYTRPTYGRTDTSCSAPGAFCSTQINSPSSYINYSKCAPSSPTLSLQKHREHVKSLLYVPDLTPSFDGSDPWNPSSQLLSEPLFDQHSFQSSLDDLMSVTCFRDSPELNHESSGYSSAPLMPSNRAFINDFSL
For B2, the binding result with Cuf2-TAP (S. pombe) is “binds”.

B3: Mei4-VC (protein, UniProt O13606 1-517)
chain: MVENQGNVEAHGKPKKVILSLSLKESSKINDSQNVSNVSSKEKCETEALLREENKENLSSDSIRQMIFGDEMAGFVDTGEKPPCSYATLIGLAILQSHNKQLTLSGIYTWIRNTFRYYLNHDGGWQNSIRHNLSLNKAFIKVEKPKGKTLKGHYWTIDPDHMQNFVSVRLHRSHSTDSNSKKRPSSKCHEIKPLTTREIPLARKRSRLNSFNSSTSTSGSSSNVAAEVSNDASQPSNQDSSLNSNIVKPPLPPSNVQSNSSSSENVPKPNAETQEDLPTIDAHESSLYENVNDSRLYEVPACRNMALNTGYSDADPGYLRTSFRSNSHNSLPYSANEEEDVLQADFLVSQQSSMVSSYVSSRDPHSMPYYRREPIPLRPSSRFYEYTRPTYGRTDTSCSAPGAFCSTQINSPSSYINYSKCAPSSPTLSLQKHREHVKSLLYVPDLTPSFDGSDPWNPSSQLLSEPLFDQHSFQSSLDDLMSVTCFRDSPELNHESSGYSSAPLMPSNRAFINDFSL
As for B3, in the experiment with Cuf2-VN (S. pombe), the binding entry is “binds”.
